## Screening data

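Mixed E. coli culture in which the wild-type GFP-labelled strain's fluorescence is read after 24 h, reported as change in activity.
Percent-style change in GFP activity at 50 µM; values more negative mean stronger inhibition.
Active needs green reporter loss at least twice the red loss with limited overall growth inhibition; inconclusive means no clear call.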

Common to all entries: at 50 µM (top of the series).
Every entry below has the call inconclusive.
Only part of the assay is shown, chiefly results filed as inconclusive.

SMILES,activity change
CC(NCc1ccc(S(N)(=O)=O)cc1)C(=O)Nc1cc([N+](=O)[O-])ccc1Cl (centres unmarked),-26.4
Cc1c(C(=O)N(Cc2ccc(F)cc2)C2CCS(=O)(=O)C2)oc2ccccc12 (centres unmarked),-34.64
O=C(OCC1COc2ccccc2O1)c1ccccc1F (centres unmarked),-0.194
Nc1ncncc1-c1ccc(Cl)cc1,-31.4
CCCCCc1nnc(NC(=O)C2COc3ccccc3O2)s1 (centres unmarked),-21.74
COC(=O)c1ccc(OCC(=O)c2ccccc2OC)cc1,-11.04
CCOC(=O)C(C)Sc1nc(N2CCOCC2)c2c(c1C#N)CC(C)(C)OC2 (centres unmarked),-17.09
O=C(COC(=O)c1ccc([N+](=O)[O-])o1)NC12CC3CC(CC(C3)C1)C2,-12.21
COC(=O)c1cc(S(=O)(=O)N(C)C2CCCCC2)oc1C,-1.087
COc1ccc(C(=O)Cn2nnc(-c3ccccc3F)n2)cc1,-18.56
O=C(Cc1c(F)cccc1Cl)N(Cc1ccccc1)c1ccccn1,0.823
Cc1cccc(C)c1NC(=O)C1(C)CSCC(=O)N1CCOc1ccccc1 (centres unmarked),-24.03
COc1ccc(Cc2c(-c3cccc(Cl)c3)nc3ccc(Cl)cn23)c(C)c1,21.87
COc1ccc(-c2nc3c(C)cc(Br)cn3c2Cc2ccc(C)cc2)cc1OC,22.07
COc1cccc(-c2ccc(SCc3ccccn3)nn2)c1,-14.56
CC1CCN(CC(O)COCCC23CC4CC(CC(C4)C2)C3)CC1 (centres unmarked),-29.76
O=C(c1ccc(-c2ccccc2)c(F)c1)C1CCCN(CCCn2cccn2)C1 (centres unmarked),-31.93
Cc1cc(C)c(S(=O)(=O)NCCOc2ccccc2)c(C)c1-n1cnnn1,-10.36
CCc1cc2c(nc1CC)CCCN2Cc1ccc(Br)cc1,-22.39
COc1ccccc1-n1c(Cc2ccccc2)nc2ccccc2c1=O,-27.68
O=C(O)CCN(Cc1ccccc1)S(=O)(=O)c1ccccc1Cl,-2.989
CC(=O)N1c2c(cc(Br)cc2S(=O)(=O)N2CCCCC2)CC1C (centres unmarked),6.124
Cc1csc(SCc2nc3scc(-c4ccccc4)c3c(=O)[nH]2)n1,-40.2
COc1ccc(NC(=O)c2sccc2-n2cccc2)cc1,-3.275
CCN(CC)CCN(C(=O)c1ccc2c(c1)OCCO2)c1nc2c(Cl)cccc2s1,-24.84
CCOC(=O)c1ccc(NC(=O)COc2ccc(CNCCO)cc2OCC)cc1,18.95
NC(=O)c1cc(C(=O)c2ccc(Cl)cc2)c[nH]1,-32.01
Cc1cc(OCC(=O)N(Cc2ccco2)C2CCS(=O)(=O)C2)ccc1Cl (centres unmarked),-13.96
Cc1cc(C(=O)c2ccc3ccccc3c2)c(C)o1,-34.5
Cc1cc(NCc2ccccn2)n2nc(C)c(-c3ccccc3)c2n1,-30.97
COC(=O)c1cn(C(=O)c2ccc(OC)cc2)c2ccccc12,-6.389
O=C(Nc1ccc2c(c1)OCCO2)C1C(c2ccccc2)=Nc2ccccc2N1C(=O)c1cccnc1 (centres unmarked),3.281
CC1CCCCN1C(=O)C1CCCN(S(=O)(=O)c2cccc3nsnc23)C1 (centres unmarked),-14.6
COc1ccc(Cc2nnc(Nc3ccc(C)cc3)o2)cc1OC,-21.57
O=S(=O)(Nc1ccc(-c2cnco2)cc1)c1ccccc1,-26.73
COc1ccc(Cl)cc1NC(=O)C1Cc2ccccc2CN1S(C)(=O)=O (centres unmarked),-21.17
COC(C(=O)Nc1ccnn1C1CCN(Cc2ccc(Cl)s2)CC1)c1ccccc1 (centres unmarked),-24.29
O=C(Nc1ccc2c(c1)OCO2)c1cccc(S(=O)(=O)N2CCCC2)c1,-18.85
NS(=O)(=O)c1cc(C(=O)OCC(=O)Nc2ccccc2[N+](=O)[O-])ccc1Cl,-16.95
Fc1ccc(-c2nc3c(Cl)cc(C(F)(F)F)cn3c2Cc2ccsc2)cc1,20.1
c1ccc(Sc2ncnc3ccccc23)cc1,-7.311
COC(=O)c1ccc2nc(-c3cccc(Br)c3)c(Cc3ccsc3)n2c1,-5.647
Cc1ccc(NC(=O)CN(C)S(=O)(=O)c2cccc3cccnc23)cc1F,-30.51
COc1cccc(NC(=O)c2ccc(NCCCN3CCC(C)CC3)c([N+](=O)[O-])c2)c1,-19.95
Cc1ccc2nc(SCC(=O)c3ccc4c(c3)NC(=O)CO4)[nH]c2c1,-3.703
COCCCNC(=O)c1ccc(-c2nc3ccccc3nc2-c2ccccc2)cc1,-4.254
O=C(c1ccccc1)C1CN(Cc2ccccc2)CCC1(O)c1ccccc1 (centres unmarked),-6.201
O=C(COC(=O)c1cc(S(=O)(=O)N2CCCCC2)ccc1N1CCOCC1)NCCc1ccc(F)cc1,-6.742
CC(=O)Nc1cccc(NC(=O)CCN2C(=O)c3ccccc3S2(=O)=O)c1,14.8
O=C(O)c1cccc2c1-c1ccc([N+](=O)[O-])cc1C2=O,15.66
COC(=O)c1ccccc1NC(=O)c1ccc2c(c1)CC(C)O2 (centres unmarked),-10.23
O=C(Nc1c(S(=O)(=O)c2ccc(Cl)cc2)csc1Br)c1ccccc1Cl,-14.67

3 of the entries, repeated:

With Cc1ccc(NC(=O)CN(C)S(=O)(=O)c2cccc3cccnc23)cc1F the assay gave activity change -30.51.
With COC(=O)c1ccc2nc(-c3cccc(Br)c3)c(Cc3ccsc3)n2c1 the assay gave activity change -5.647.
With CC(=O)Nc1cccc(NC(=O)CCN2C(=O)c3ccccc3S2(=O)=O)c1 the assay gave activity change 14.8.

Source: PubChem BioAssay AID977630 (Broad Institute, 2014).